Measured values from PMC5640240.

Chains of the proteins cited; added tags and fusions are not shown.
UniProt P61244: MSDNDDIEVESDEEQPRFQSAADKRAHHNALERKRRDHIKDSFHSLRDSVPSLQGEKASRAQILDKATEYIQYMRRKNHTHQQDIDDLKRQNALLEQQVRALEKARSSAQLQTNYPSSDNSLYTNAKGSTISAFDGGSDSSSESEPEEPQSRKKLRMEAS
UniProt Q15014: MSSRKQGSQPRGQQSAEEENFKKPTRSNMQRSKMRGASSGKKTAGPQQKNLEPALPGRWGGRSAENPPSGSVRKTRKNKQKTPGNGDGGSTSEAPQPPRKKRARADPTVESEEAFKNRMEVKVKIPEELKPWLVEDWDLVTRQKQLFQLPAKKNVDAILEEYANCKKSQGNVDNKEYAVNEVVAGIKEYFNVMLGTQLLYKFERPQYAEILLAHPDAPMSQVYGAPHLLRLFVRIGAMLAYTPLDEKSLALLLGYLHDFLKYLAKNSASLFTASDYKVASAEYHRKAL
UniProt Q52LR7: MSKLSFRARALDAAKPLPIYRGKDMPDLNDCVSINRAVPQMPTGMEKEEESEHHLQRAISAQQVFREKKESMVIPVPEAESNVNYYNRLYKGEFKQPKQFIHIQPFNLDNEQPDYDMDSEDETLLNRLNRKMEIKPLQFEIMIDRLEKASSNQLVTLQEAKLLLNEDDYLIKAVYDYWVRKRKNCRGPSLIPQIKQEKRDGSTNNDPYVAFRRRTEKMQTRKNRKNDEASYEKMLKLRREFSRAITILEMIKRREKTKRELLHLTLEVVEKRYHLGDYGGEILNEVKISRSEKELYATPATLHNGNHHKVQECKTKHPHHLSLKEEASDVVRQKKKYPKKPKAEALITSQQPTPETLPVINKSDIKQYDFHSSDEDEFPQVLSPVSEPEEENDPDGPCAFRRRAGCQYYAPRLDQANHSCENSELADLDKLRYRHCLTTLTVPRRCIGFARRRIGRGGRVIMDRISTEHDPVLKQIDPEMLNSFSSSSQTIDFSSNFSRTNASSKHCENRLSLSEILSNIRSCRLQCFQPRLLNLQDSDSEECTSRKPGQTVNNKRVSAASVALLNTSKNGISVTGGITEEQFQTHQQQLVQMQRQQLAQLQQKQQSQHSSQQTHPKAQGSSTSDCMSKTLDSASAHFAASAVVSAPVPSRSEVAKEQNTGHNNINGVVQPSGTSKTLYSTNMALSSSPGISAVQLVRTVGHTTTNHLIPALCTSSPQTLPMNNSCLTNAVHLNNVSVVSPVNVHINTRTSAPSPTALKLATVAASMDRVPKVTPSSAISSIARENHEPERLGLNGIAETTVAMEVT

Legend:
Test in all cases: affinity purification with mass spectrometry
[1] = target: EP400 (human (endogenous in MKL-1)) (UniProt Q96L91)
[2] = target: MAX (human (endogenous in MKL-1 and the other cell lines)) (UniProt P61244)
[3] = target: Merkel cell polyomavirus large T antigen, truncated form (Merkel cell polyomavirus)
[4] = target: MAX (human (endogenous in MKL-1 and the other cell lines)) (UniProt P61244); remark: listed apart in the source

## ING3 (from UniProt Q9NXR8 1-418)
[1]
  binding: binds

## DMAP1 (from UniProt Q9NPF5 1-467)
[1]
  binding: binds

## YEATS4 (from UniProt O95619 1-227)
[1]
  binding: binds

## KAT5 (from UniProt Q92993 1-513)
[1]
  binding: binds

## MORFL2 (from UniProt Q15014 1-288)
[1]
  binding: binds
[2]
  binding: binds

## BRD8 (from UniProt Q9H0E9 1-1235)
[1]
  binding: binds

## EPC2 (from UniProt Q52LR7 1-807)
[1]
  binding: binds
[2]
  binding: binds

## MORF4L1 (from UniProt Q9UBU8 1-362)
[1]
  binding: binds

## MBTD1 (from UniProt Q05BQ5 1-628)
[1]
  binding: binds

## ACTL6A (from UniProt O96019 1-429)
[1]
  binding: binds

## TRRAP (from UniProt Q9Y4A5 1-3859)
[1]
  binding: binds

## EPC1 (from UniProt Q9H2F5 1-836)
[1]
  binding: binds

B1: RB1 (protein, UniProt P06400 1-928)
chain: MPPKTPRKTAATAAAAAAEPPAPPPPPPPEEDPEQDSGPEDLPLVRLEFEETEEPDFTALCQKLKIPDHVRERAWLTWEKVSSVDGVLGGYIQKKKELWGICIFIAAVDLDEMSFTFTELQKNIEISVHKFFNLLKEIDTSTKVDNAMSRLLKKYDVLFALFSKLERTCELIYLTQPSSSISTEINSALVLKVSWITFLLAKGEVLQMEDDLVISFQLMLCVLDYFIKLSPPMLLKEPYKTAVIPINGSPRTPRRGQNRSARIAKQLENDTRIIEVLCKEHECNIDEVKNVYFKNFIPFMNSLGLVTSNGLPEVENLSKRYEEIYLKNKDLDARLFLDHDKTLQTDSIDSFETQRTPRKSNLDEEVNVIPPHTPVRTVMNTIQQLMMILNSASDQPSENLISYFNNCTVNPKESILKRVKDIGYIFKEKFAKAVGQGCVEIGSQRYKLGVRLYYRVMESMLKSEEERLSIQNFSKLLNDNIFHMSLLACALEVVMATYSRSTSQNLDSGTDLSFPWILNVLNLKAFDFYKVIESFIKAEGNLTREMIKHLERCEHRIMESLAWLSDSPLFDLIKQSKDREGPTDHLESACPLNLPLQNNHTAADMYLSPVRSPKKKGSTTRVNSTANAETQATSAFQTQKPLKSTSLSLFYKKVYRLAYLRLNTLCERLLSEHPELEHIIWTLFQHTLQNEYELMRDRHLDQIMMCSMYGICKVKNIDLKFKIIVTAYKDLPHAVQETFKRVLIKEEEYDSIIVFYNSVFMQRLKTNILQYASTRPPTLSPIPHIPRSPYKFPSSPLRIPGGNIYISPLKSPYKISEGLPTPTKMTPRSRILVSIGESFGTSEKFQKINQMVCNSDRVLKRSAEGSNPPKPLKKLRFDIEGSDEADGSKHLPGESKFQQKLAEMTSTRTRMQKQKMNDSMDTSNKEEK
[3]
  binding: binds

B2: VPS39 (protein, UniProt Q96JC1 1-886)
chain: MHDAFEPVPILEKLPLQIDCLAAWEEWLLVGTKQGHLLLYRIRKDVVPADVASPESGSCNRFEVTLEKSNKNFSKKIQQIHVVSQFKILVSLLENNIYVHDLLTFQQITTVSKAKGASLFTCDLQHTETGEEVLRMCVAVKKKLQLYFWKDREFHELQGDFSVPDVPKSMAWCENSICVGFKRDYYLIRVDGKGSIKELFPTGKQLEPLVAPLADGKVAVGQDDLTVVLNEEGICTQKCALNWTDIPVAMEHQPPYIIAVLPRYVEIRTFEPRLLVQSIELQRPRFITSGGSNIIYVASNHFVWRLIPVPMATQIQQLLQDKQFELALQLAEMKDDSDSEKQQQIHHIKNLYAFNLFCQKRFDESMQVFAKLGTDPTHVMGLYPDLLPTDYRKQLQYPNPLPVLSGAELEKAHLALIDYLTQKRSQLVKKLNDSDHQSSTSPLMEGTPTIKSKKKLLQIIDTTLLKCYLHTNVALVAPLLRLENNHCHIEESEHVLKKAHKYSELIILYEKKGLHEKALQVLVDQSKKANSPLKGHERTVQYLQHLGTENLHLIFSYSVWVLRDFPEDGLKIFTEDLPEVESLPRDRVLGFLIENFKGLAIPYLEHIIHVWEETGSRFHNCLIQLYCEKVQGLMKEYLLSFPAGKTPVPAGEEEGELGEYRQKLLMFLEISSYYDPGRLICDFPFDGLLEERALLLGRMGKHEQALFIYVHILKDTRMAEEYCHKHYDRNKDGNKDVYLSLLRMYLSPPSIHCLGPIKLELLEPKANLQAALQVLELHHSKLDTTKALNLLPANTQINDIRIFLEKVLEENAQKKRFNQVLKNLLHAEFLRVQEERILHQQVKCIITEEKVCMVCKKKIGNSAFARYPNGVVVHYFCSKEVNPADT
[3]
  binding: binds

B3: MYCL (protein, UniProt P12524 1-364)
chain: MDYDSYQHYFYDYDCGEDFYRSTAPSEDIWKKFELVPSPPTSPPWGLGPGAGDPAPGIGPPEPWPGGCTGDEAESRGHSKGWGRNYASIIRRDCMWSGFSARERLERAVSDRLAPGAPRGNPPKASAAPDCTPSLEAGNPAPAAPCPLGEPKTQACSGSESPSDSENEEIDVVTVEKRQSLGIRKPVTITVRADPLDPCMKHFHISIHQQQHNYAARFPPESCSQEEASERGPQEEVLERDAAGEKEDEEDEEIVSPPPVESEAAQSCHPKPVSSDTEDVTKRKNHNFLERKRRNDLRSRFLALRDQVPTLASCSKAPKVVILSKALEYLQALVGAEKRMATEKRQLRCRQQQLQKRIAYLTGY
[4]
  binding: binds

Where two headings read alike, the source gives them in different places. No constants are given. Whether binding was seen depends on the method and setting. In cells and extracts the contact can be indirect. These calls come from enrichment with a bait or labelling near it, and not all partners need be listed. For some assays here: Tags and fused reporters may be left off the sequences shown.
